Reference: the supplement of paper PMC12823440, “Inhibitors supercharge kinase turnover through native proteolytic circuits” (Nature, 2025)
Where a name gives a salt, the structure may show the parent alone. The list shows a part of the results. The calls rarely recur for the same compound in another form.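 Kinases were expressed as nanoluciferase fusions in K562 cells and luminescence was read every 4 h between 2 and 18 h as percent of control, DMSO set to 100% and a positive control to 0%. A time point counts as decreased when the signal drops significantly (2 sigma). The hit call is the authors' own, does not follow from the count of time points alone, and its rule is not shown.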

Sequences of proteins named here, by UniProt entry; tags and fusion partners are left off. A change or cut given only in a name is not applied to a line headed by its entry.
UniProt O15530: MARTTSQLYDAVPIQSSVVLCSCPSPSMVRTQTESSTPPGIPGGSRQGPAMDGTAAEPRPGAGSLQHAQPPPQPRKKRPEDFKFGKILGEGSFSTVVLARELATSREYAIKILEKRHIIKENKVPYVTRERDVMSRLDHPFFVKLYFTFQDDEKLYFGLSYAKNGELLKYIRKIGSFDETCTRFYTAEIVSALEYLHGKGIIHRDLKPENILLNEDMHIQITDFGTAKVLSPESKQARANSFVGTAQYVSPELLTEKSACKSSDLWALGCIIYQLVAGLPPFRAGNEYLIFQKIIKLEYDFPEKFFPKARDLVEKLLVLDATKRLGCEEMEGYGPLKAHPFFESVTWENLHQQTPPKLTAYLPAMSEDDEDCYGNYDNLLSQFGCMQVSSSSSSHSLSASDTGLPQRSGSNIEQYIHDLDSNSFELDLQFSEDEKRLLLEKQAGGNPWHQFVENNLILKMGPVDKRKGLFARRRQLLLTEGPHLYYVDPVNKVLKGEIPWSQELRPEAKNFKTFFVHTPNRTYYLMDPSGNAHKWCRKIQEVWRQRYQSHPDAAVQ
UniProt Q05397, whole entry, looked up: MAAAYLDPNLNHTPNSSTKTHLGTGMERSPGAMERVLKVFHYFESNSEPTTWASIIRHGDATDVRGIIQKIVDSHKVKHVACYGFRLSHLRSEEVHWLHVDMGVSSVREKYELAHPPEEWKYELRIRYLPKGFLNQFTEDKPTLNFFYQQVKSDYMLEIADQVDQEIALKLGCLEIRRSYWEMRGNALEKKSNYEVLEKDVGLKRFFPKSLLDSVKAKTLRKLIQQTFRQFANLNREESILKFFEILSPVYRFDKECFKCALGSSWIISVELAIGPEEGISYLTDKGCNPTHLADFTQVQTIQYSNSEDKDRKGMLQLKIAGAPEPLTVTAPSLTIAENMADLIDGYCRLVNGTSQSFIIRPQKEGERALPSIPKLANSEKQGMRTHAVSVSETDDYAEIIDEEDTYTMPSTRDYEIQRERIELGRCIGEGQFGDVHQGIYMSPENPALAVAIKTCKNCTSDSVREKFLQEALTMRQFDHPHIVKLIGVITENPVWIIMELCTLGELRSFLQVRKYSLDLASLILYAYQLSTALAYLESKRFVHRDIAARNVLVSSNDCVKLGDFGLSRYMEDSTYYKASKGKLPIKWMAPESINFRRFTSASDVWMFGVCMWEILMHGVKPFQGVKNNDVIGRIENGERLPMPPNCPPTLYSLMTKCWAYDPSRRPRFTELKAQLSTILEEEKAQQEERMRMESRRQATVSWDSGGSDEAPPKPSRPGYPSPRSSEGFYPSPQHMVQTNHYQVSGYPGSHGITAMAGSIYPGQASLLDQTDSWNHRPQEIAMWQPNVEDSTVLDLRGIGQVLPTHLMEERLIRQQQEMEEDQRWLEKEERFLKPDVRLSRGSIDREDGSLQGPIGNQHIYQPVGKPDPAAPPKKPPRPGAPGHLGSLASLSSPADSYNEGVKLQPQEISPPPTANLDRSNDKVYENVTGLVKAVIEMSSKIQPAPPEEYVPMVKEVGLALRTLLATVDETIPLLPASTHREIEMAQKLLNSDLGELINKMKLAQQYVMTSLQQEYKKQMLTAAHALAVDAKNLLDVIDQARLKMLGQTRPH
UniProt Q14289, whole entry, looked up: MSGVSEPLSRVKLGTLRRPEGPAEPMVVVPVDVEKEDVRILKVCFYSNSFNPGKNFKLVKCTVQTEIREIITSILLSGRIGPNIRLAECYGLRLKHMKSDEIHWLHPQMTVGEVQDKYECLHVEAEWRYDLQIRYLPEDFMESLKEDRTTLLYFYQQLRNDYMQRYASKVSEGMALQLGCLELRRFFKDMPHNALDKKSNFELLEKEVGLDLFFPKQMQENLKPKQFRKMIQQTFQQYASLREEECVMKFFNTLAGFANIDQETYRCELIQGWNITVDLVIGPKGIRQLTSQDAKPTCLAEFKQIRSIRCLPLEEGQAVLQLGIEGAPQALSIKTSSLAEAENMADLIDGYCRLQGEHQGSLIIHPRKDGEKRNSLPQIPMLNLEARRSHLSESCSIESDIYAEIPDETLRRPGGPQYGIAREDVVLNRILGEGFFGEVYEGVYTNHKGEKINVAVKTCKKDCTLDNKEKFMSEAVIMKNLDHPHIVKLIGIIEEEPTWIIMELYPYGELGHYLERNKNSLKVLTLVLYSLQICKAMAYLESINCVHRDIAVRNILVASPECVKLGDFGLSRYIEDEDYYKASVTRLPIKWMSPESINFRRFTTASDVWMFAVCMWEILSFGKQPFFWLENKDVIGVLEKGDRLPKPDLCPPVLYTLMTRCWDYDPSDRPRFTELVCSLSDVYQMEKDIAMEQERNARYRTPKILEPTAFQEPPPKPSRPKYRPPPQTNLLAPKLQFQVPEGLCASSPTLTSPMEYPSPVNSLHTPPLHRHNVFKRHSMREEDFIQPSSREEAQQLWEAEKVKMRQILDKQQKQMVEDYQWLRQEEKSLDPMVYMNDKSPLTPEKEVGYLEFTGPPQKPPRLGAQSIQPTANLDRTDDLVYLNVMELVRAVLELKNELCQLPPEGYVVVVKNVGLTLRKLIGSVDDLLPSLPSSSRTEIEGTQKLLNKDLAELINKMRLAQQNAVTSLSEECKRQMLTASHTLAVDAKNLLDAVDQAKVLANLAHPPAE
UniProt P07949, whole entry, looked up: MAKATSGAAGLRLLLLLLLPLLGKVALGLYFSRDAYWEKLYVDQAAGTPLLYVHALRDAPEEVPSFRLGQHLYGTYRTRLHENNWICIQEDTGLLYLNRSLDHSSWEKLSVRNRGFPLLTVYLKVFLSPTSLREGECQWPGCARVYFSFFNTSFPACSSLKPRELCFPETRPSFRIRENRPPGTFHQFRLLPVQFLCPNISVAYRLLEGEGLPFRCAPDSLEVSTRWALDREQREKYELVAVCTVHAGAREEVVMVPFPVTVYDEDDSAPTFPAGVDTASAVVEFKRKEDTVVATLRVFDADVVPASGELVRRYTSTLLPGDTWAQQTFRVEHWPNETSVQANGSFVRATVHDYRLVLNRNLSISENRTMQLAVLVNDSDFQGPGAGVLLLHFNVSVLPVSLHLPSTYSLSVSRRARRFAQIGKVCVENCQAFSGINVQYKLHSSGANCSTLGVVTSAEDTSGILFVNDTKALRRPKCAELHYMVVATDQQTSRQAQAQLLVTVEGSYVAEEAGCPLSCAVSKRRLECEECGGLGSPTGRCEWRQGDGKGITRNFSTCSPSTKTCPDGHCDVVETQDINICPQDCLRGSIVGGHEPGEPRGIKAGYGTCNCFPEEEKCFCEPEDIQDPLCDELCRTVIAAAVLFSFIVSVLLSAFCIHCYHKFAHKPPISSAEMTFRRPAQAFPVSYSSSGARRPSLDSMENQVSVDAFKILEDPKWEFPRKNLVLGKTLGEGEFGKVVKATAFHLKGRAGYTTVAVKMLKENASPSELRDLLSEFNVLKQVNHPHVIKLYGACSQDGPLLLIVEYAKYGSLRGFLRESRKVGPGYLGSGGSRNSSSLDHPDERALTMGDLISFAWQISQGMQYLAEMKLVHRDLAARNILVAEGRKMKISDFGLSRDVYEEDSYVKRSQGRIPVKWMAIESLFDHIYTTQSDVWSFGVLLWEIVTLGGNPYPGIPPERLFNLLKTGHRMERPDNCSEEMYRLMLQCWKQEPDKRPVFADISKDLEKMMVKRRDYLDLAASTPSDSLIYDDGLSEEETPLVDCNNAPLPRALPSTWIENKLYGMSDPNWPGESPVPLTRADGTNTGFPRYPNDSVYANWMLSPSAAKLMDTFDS
UniProt P07949, whole entry M918T, looked up: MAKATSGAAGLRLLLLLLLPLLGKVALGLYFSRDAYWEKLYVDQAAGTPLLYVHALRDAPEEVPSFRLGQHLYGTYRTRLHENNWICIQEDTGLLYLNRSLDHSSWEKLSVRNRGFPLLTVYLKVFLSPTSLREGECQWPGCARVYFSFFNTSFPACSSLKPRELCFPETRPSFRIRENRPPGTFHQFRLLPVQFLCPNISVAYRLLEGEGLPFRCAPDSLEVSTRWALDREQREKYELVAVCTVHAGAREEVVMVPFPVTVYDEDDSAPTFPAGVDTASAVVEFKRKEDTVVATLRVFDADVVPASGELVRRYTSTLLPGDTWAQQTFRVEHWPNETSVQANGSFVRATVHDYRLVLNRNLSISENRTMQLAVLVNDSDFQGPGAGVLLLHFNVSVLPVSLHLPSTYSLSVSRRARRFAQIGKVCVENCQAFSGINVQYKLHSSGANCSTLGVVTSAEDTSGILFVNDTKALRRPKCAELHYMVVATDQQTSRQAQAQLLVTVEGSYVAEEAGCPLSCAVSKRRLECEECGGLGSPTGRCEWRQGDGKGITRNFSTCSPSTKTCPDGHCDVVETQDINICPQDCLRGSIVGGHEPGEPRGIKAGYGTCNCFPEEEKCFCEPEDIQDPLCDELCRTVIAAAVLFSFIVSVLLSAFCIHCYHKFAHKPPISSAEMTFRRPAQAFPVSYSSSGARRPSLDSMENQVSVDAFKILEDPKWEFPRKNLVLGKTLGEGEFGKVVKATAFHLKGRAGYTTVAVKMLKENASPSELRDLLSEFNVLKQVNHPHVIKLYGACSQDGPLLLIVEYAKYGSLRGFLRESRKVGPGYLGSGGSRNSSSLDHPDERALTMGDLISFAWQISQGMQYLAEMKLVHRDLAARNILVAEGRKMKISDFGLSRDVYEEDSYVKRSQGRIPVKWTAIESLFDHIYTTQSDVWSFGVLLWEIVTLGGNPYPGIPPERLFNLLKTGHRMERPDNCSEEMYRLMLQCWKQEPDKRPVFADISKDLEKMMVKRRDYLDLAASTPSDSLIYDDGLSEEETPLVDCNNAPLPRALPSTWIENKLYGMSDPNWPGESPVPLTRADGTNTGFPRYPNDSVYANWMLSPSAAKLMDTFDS
UniProt Q13546: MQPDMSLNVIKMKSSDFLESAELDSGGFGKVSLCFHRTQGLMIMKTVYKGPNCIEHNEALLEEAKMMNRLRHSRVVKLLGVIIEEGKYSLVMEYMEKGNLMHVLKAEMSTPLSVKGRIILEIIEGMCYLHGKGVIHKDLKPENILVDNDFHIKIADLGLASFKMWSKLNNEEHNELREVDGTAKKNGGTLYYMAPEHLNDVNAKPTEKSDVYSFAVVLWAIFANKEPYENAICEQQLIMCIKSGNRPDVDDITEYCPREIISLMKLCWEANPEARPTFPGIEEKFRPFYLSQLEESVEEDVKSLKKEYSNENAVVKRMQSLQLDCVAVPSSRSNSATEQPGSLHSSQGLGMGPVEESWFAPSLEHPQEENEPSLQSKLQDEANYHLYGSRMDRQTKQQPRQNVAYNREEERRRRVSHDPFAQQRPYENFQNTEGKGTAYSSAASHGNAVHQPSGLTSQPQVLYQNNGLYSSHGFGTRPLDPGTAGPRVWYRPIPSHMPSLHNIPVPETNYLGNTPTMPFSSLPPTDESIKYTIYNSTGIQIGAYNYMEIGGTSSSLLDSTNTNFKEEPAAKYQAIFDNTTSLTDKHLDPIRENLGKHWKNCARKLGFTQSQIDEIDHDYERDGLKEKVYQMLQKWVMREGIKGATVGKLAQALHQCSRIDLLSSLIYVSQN
UniProt Q01974, whole entry: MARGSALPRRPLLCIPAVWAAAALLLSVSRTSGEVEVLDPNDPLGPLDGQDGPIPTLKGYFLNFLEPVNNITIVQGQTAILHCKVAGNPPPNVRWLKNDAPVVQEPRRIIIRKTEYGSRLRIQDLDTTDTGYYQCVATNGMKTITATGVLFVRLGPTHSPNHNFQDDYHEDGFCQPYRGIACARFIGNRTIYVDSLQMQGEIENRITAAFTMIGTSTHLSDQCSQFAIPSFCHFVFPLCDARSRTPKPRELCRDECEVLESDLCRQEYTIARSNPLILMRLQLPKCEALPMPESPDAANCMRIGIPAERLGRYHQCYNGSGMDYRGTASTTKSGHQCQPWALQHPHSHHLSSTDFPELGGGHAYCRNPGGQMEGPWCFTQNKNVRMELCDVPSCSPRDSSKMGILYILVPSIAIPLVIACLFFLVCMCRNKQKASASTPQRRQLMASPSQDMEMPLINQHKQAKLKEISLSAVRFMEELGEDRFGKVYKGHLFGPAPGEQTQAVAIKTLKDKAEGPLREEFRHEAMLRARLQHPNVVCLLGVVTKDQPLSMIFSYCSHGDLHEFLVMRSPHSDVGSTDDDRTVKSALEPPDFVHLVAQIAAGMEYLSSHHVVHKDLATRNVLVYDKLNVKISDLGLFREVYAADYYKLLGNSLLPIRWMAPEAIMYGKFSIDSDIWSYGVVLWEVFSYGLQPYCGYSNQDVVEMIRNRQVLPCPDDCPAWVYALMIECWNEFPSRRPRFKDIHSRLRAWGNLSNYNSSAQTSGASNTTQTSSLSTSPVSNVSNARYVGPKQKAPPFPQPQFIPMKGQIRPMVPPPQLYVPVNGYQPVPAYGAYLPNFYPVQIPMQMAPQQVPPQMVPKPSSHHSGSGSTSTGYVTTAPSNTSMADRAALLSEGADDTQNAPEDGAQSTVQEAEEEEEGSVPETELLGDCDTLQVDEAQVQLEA

Legend:
Assay in all cases: kinase-Nluc reporter destabilization hit call (1 = scored as downregulated) (binary); higher = compound decreases kinase abundance
Conditions in all cases: K562; 2-18 h
PDPK1 = PDPK1 (UniProt O15530)
PIK4CA = PIK4CA (UniProt P42356)
PIK4CB = PIK4CB (UniProt Q9UBF8)
PLK1 = PLK1 (UniProt P53350)
PRKAA1 = PRKAA1 (UniProt Q13131)
PRKCA = PRKCA (UniProt P17252)
PTK2 = PTK2 (UniProt Q05397)
PTK2B = PTK2B (UniProt Q14289)
RAF1 = RAF1 (UniProt P04049)
[1] = biological target: RAF1_S257L (clone: RAF1_mut) (UniProt P04049)
RET = RET (UniProt P07949)
[2] = biological target: RET_M918T (clone: RET_mut) (UniProt P07949)
RIOK1 = RIOK1 (UniProt Q9BRS2)
RIPK1 = RIPK1 (UniProt Q13546)
RIPK2 = RIPK2 (UniProt O43353)
ROR2 = ROR2 (UniProt Q01974)
RPS6KA1 = RPS6KA1 (UniProt Q15418)
SPHK1 = SPHK1 (UniProt Q9NYA1)
SRC = SRC (UniProt P12931)
STK24 = STK24 (UniProt Q9Y6E0)

Measured: kinase-Nluc reporter destabilization hit call

C[C@@H](c1ccc(F)cc1)n1nnc2cnc3ccc(-c4ccc5ocnc5c4)cc3c21 (10 µM)
inactive: PDPK1 = 0 | PIK4CA 0 | PIK4CB 0 | PLK1 = 0 | PRKAA1 = 0 | PRKCA 0 | PTK2 = 0 | PTK2B 0 | RAF1 = 0 | [1] 0 | RET 0 | [2] 0 | RIOK1 = 0 | RIPK1 = 0 | RIPK2 = 0 | ROR2 = 0 | RPS6KA1 = 0 | SPHK1 = 0 | SRC 0 | STK24 = 0

Cn1nccc1Nc1nccc(-c2ccn([C@H](CO)c3ccc(Cl)c(F)c3)c(=O)c2)n1 [Ravoxertinib hydrochloride] (10 µM)
inactive: PDPK1 = 0 | PIK4CA 0 | PIK4CB 0 | PLK1 = 0 | PRKAA1 = 0 | PRKCA 0 | PTK2 = 0 | PTK2B 0 | RAF1 = 0 | [1] 0 | RET 0 | [2] 0 | RIOK1 = 0 | RIPK1 = 0 | RIPK2 = 0 | ROR2 = 0 | RPS6KA1 = 0 | SPHK1 = 0 | SRC 0 | STK24 = 0

Cc1ccc2cc(-c3c(C)ccc(C(=O)c4c(-c5ccccc5)n(C)n(-c5ccccc5)c4=O)c3N)ccc2n1 (2.5 µM)
inactive: PDPK1 = 0 | PIK4CA 0 | PIK4CB 0 | PLK1 = 0 | PRKAA1 = 0 | PRKCA 0 | PTK2 = 0 | PTK2B 0 | RAF1 = 0 | [1] 0 | RET 0 | [2] 0 | RIOK1 = 0 | RIPK1 = 0 | RIPK2 = 0 | ROR2 = 0 | RPS6KA1 = 0 | SPHK1 = 0 | SRC 0 | STK24 = 0

O=C(O)CCC(=O)Nc1ccc(Br)cn1 [Bikinin] (10 µM)
inactive: PDPK1 = 0 | PIK4CA 0 | PIK4CB 0 | PLK1 = 0 | PRKAA1 = 0 | PRKCA 0 | PTK2 = 0 | PTK2B 0 | RAF1 = 0 | [1] 0 | RET 0 | [2] 0 | RIOK1 = 0 | RIPK1 = 0 | RIPK2 = 0 | ROR2 = 0 | RPS6KA1 = 0 | SPHK1 = 0 | SRC 0 | STK24 = 0

C=CC(=O)Nc1cccc(Nc2nc(Nc3ccc(N4CCN(C(C)=O)CC4)cc3OC)ncc2C(F)(F)F)c1 [Rociletinib] (10 µM)
inactive: PDPK1 = 0 | PIK4CA 0 | PIK4CB 0 | PLK1 = 0 | PRKAA1 = 0 | PRKCA 0 | PTK2 = 0 | PTK2B 0 | RAF1 = 0 | [1] 0 | RET 0 | [2] 0 | RIOK1 = 0 | RIPK1 = 0 | RIPK2 = 0 | ROR2 = 0 | RPS6KA1 = 0 | SPHK1 = 0 | SRC 0 | STK24 = 0

CC(C)(C)c1cc(O)ccc1O (10 µM)
inactive: PDPK1 = 0 | PIK4CA 0 | PIK4CB 0 | PLK1 = 0 | PRKAA1 = 0 | PRKCA 0 | PTK2 = 0 | PTK2B 0 | RAF1 = 0 | [1] 0 | RET 0 | [2] 0 | RIOK1 = 0 | RIPK1 = 0 | RIPK2 = 0 | ROR2 = 0 | RPS6KA1 = 0 | SPHK1 = 0 | SRC 0 | STK24 = 0

CCOC(=O)N1CCN(C(=O)[C@H](Cc2cccc(C(=N)N)c2)NS(=O)(=O)c2c(C(C)C)cc(C(C)C)cc2C(C)C)CC1 (10 µM)
inactive: PDPK1 = 0 | PIK4CA 0 | PIK4CB 0 | PLK1 = 0 | PRKAA1 = 0 | PRKCA 0 | PTK2 = 0 | PTK2B 0 | RAF1 = 0 | [1] 0 | RET 0 | [2] 0 | RIOK1 = 0 | RIPK1 = 0 | RIPK2 = 0 | ROR2 = 0 | RPS6KA1 = 0 | SPHK1 = 0 | SRC 0 | STK24 = 0

Cc1cc(CN2CCN(c3c(Br)cnc4nc(-c5ccc(N6CCN(C)CC6)cc5)[nH]c34)CC2)no1 (2.5 µM)
inactive: PDPK1 = 0 | PIK4CA 0 | PIK4CB 0 | PLK1 = 0 | PRKAA1 = 0 | PRKCA 0 | PTK2 = 0 | PTK2B 0 | RAF1 = 0 | [1] 0 | RET 0 | [2] 0 | RIOK1 = 0 | RIPK1 = 0 | RIPK2 = 0 | ROR2 = 0 | RPS6KA1 = 0 | SPHK1 = 0 | SRC 0 | STK24 = 0

c1ccc(-c2[nH]ncc2-c2ccnc3ccccc23)nc1 (10 µM)
inactive: PDPK1 = 0 | PIK4CA 0 | PIK4CB 0 | PLK1 = 0 | PRKAA1 = 0 | PRKCA 0 | PTK2 = 0 | PTK2B 0 | RAF1 = 0 | [1] 0 | RET 0 | [2] 0 | RIOK1 = 0 | RIPK1 = 0 | RIPK2 = 0 | ROR2 = 0 | RPS6KA1 = 0 | SPHK1 = 0 | SRC 0 | STK24 = 0

CCC(C)N1c2ccccc2C(=O)N(C)c2cnc(Nc3ccc(C(=O)N4CCC(N5CCN(C)CC5)CC4)cc3OC)nc21 (stereo not given) (2.5 µM)
inactive: PDPK1 = 0 | PIK4CA 0 | PIK4CB 0 | PLK1 = 0 | PRKAA1 = 0 | PRKCA 0 | PTK2 = 0 | PTK2B 0 | RAF1 = 0 | [1] 0 | RET 0 | [2] 0 | RIOK1 = 0 | RIPK1 = 0 | RIPK2 = 0 | ROR2 = 0 | RPS6KA1 = 0 | SPHK1 = 0 | SRC 0 | STK24 = 0

CN1CCN(c2cnc3c(C4CCN(C(=O)c5ccc(OC(F)(F)F)cc5N)CC4)ncnc3c2)CC1 (10 µM)
inactive: PDPK1 = 0 | PIK4CA 0 | PIK4CB 0 | PLK1 = 0 | PRKAA1 = 0 | PRKCA 0 | PTK2 = 0 | PTK2B 0 | RAF1 = 0 | [1] 0 | RET 0 | [2] 0 | RIOK1 = 0 | RIPK1 = 0 | RIPK2 = 0 | ROR2 = 0 | RPS6KA1 = 0 | SPHK1 = 0 | SRC 0 | STK24 = 0

Cc1ccc(C(=O)Nc2ccc(Oc3cc4cnn(C)c4cc3-c3cn[nH]c3)c(F)c2)c(=O)n1-c1ccc(F)cc1 [Merestinib] (2.5 µM)
inactive: PDPK1 = 0 | PIK4CA 0 | PIK4CB 0 | PLK1 = 0 | PRKAA1 = 0 | PRKCA 0 | PTK2 = 0 | PTK2B 0 | RAF1 = 0 | [1] 0 | RET 0 | [2] 0 | RIOK1 = 0 | RIPK1 = 0 | RIPK2 = 0 | ROR2 = 0 | RPS6KA1 = 0 | SPHK1 = 0 | SRC 0 | STK24 = 0

CC[C@@H](Oc1nc(Oc2cc(C)cc(-c3cccc(CN)c3)c2)c(F)cc1F)C(=O)O (10 µM)
inactive: PDPK1 = 0 | PIK4CA 0 | PIK4CB 0 | PLK1 = 0 | PRKAA1 = 0 | PRKCA 0 | PTK2 = 0 | PTK2B 0 | RAF1 = 0 | [1] 0 | RET 0 | [2] 0 | RIOK1 = 0 | RIPK1 = 0 | RIPK2 = 0 | ROR2 = 0 | RPS6KA1 = 0 | SPHK1 = 0 | SRC 0 | STK24 = 0

Two compounds drawn at random from those above, as already listed:
CN1CCN(c2cnc3c(C4CCN(C(=O)c5ccc(OC(F)(F)F)cc5N)CC4)ncnc3c2)CC1 (10 µM)
inactive: PDPK1 = 0 | PIK4CA 0 | PIK4CB 0 | PLK1 = 0 | PRKAA1 = 0 | PRKCA 0 | PTK2 = 0 | PTK2B 0 | RAF1 = 0 | [1] 0 | RET 0 | [2] 0 | RIOK1 = 0 | RIPK1 = 0 | RIPK2 = 0 | ROR2 = 0 | RPS6KA1 = 0 | SPHK1 = 0 | SRC 0 | STK24 = 0

CC[C@@H](Oc1nc(Oc2cc(C)cc(-c3cccc(CN)c3)c2)c(F)cc1F)C(=O)O (10 µM)
inactive: PDPK1 = 0 | PIK4CA 0 | PIK4CB 0 | PLK1 = 0 | PRKAA1 = 0 | PRKCA 0 | PTK2 = 0 | PTK2B 0 | RAF1 = 0 | [1] 0 | RET 0 | [2] 0 | RIOK1 = 0 | RIPK1 = 0 | RIPK2 = 0 | ROR2 = 0 | RPS6KA1 = 0 | SPHK1 = 0 | SRC 0 | STK24 = 0

(more compounds)

COc1cc2c(cc1OC)CN(S(=O)(=O)c1ccc(OC)c(N3CCN(C(=O)c4ccc(F)cc4C(F)(F)F)CC3)c1)CC2 (10 µM)
inactive: PDPK1 = 0 | PIK4CA 0 | PIK4CB 0 | PLK1 = 0 | PRKAA1 = 0 | PRKCA 0 | PTK2 = 0 | PTK2B 0 | RAF1 = 0 | [1] 0 | RET 0 | [2] 0 | RIOK1 = 0 | RIPK1 = 0 | RIPK2 = 0 | ROR2 = 0 | RPS6KA1 = 0 | SPHK1 = 0 | SRC 0 | STK24 = 0

Oc1ccc(Nc2nc(-c3ccc(Cl)cc3)cs2)cc1 (10 µM)
inactive: PDPK1 = 0 | PIK4CA 0 | PIK4CB 0 | PLK1 = 0 | PRKAA1 = 0 | PRKCA 0 | PTK2 = 0 | PTK2B 0 | RAF1 = 0 | [1] 0 | RET 0 | [2] 0 | RIOK1 = 0 | RIPK1 = 0 | RIPK2 = 0 | ROR2 = 0 | RPS6KA1 = 0 | SPHK1 = 0 | SRC 0 | STK24 = 0

CNC(=O)c1ccc(C)c(-n2c(C)cc(OCc3ccc(F)cc3F)c(Br)c2=O)c1 (10 µM)
inactive: PDPK1 = 0 | PIK4CA 0 | PIK4CB 0 | PLK1 = 0 | PRKAA1 = 0 | PRKCA 0 | PTK2 = 0 | PTK2B 0 | RAF1 = 0 | [1] 0 | RET 0 | [2] 0 | RIOK1 = 0 | RIPK1 = 0 | RIPK2 = 0 | ROR2 = 0 | RPS6KA1 = 0 | SPHK1 = 0 | SRC 0 | STK24 = 0

O=C1NC(=O)/C(=C\c2cccc(C(F)(F)F)c2)S1 (2.5 µM)
inactive: PDPK1 = 0 | PIK4CA 0 | PIK4CB 0 | PLK1 = 0 | PRKAA1 = 0 | PRKCA 0 | PTK2 = 0 | PTK2B 0 | RAF1 = 0 | [1] 0 | RET 0 | [2] 0 | RIOK1 = 0 | RIPK1 = 0 | RIPK2 = 0 | ROR2 = 0 | RPS6KA1 = 0 | SPHK1 = 0 | SRC 0 | STK24 = 0

CC#CC(=O)N1CC[C@@H](n2c(=O)n(-c3ccc(Oc4ccccc4)cc3)c3c(N)ncnc32)C1 [Tirabrutinib (hydrochloride)] (10 µM)
inactive: PDPK1 = 0 | PIK4CA 0 | PIK4CB 0 | PLK1 = 0 | PRKAA1 = 0 | PRKCA 0 | PTK2 = 0 | PTK2B 0 | RAF1 = 0 | [1] 0 | RET 0 | [2] 0 | RIOK1 = 0 | RIPK1 = 0 | RIPK2 = 0 | ROR2 = 0 | RPS6KA1 = 0 | SPHK1 = 0 | SRC 0 | STK24 = 0
